# The list shows a part of the results. Residues, ends and D or L forms follow the SMILES beside them. *: point of attachment. Cbz = O=C(OCc1ccccc1)*
# By UniProt entry, the sequences of proteins in these tests, tags left out. Where a name states a change or a piece, a line headed by the entry shows the natural chain unless it says otherwise.
# UniProt O43639, whole entry, looked up: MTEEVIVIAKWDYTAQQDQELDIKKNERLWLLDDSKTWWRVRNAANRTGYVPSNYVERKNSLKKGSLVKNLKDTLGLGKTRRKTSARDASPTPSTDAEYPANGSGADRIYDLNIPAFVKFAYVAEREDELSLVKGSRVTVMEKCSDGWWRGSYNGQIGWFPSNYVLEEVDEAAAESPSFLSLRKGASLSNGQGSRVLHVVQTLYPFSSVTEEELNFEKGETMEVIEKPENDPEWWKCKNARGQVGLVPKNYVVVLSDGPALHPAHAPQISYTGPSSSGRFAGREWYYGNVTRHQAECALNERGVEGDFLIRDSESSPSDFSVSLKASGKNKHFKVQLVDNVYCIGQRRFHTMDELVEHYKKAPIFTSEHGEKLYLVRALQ
# UniProt Q9HCD5: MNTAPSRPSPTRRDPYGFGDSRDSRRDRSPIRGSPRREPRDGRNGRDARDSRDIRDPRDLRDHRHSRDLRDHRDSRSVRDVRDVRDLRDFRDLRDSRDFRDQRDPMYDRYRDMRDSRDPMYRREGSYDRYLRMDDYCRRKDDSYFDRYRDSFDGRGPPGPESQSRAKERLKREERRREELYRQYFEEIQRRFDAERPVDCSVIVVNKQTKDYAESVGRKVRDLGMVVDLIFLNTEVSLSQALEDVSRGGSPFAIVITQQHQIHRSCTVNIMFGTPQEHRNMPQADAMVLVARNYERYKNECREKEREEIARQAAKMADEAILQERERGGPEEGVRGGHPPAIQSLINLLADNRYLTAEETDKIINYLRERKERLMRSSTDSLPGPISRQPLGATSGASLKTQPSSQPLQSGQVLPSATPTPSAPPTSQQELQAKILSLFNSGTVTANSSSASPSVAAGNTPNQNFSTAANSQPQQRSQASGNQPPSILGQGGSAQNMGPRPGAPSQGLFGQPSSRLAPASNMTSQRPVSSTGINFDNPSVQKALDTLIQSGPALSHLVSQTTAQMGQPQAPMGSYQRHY
# UniProt Q69YL0: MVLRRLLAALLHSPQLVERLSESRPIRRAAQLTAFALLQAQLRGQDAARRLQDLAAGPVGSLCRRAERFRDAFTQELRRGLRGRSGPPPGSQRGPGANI
# NA, A0A494C071, UniProt A0A494C071, whole entry, looked up: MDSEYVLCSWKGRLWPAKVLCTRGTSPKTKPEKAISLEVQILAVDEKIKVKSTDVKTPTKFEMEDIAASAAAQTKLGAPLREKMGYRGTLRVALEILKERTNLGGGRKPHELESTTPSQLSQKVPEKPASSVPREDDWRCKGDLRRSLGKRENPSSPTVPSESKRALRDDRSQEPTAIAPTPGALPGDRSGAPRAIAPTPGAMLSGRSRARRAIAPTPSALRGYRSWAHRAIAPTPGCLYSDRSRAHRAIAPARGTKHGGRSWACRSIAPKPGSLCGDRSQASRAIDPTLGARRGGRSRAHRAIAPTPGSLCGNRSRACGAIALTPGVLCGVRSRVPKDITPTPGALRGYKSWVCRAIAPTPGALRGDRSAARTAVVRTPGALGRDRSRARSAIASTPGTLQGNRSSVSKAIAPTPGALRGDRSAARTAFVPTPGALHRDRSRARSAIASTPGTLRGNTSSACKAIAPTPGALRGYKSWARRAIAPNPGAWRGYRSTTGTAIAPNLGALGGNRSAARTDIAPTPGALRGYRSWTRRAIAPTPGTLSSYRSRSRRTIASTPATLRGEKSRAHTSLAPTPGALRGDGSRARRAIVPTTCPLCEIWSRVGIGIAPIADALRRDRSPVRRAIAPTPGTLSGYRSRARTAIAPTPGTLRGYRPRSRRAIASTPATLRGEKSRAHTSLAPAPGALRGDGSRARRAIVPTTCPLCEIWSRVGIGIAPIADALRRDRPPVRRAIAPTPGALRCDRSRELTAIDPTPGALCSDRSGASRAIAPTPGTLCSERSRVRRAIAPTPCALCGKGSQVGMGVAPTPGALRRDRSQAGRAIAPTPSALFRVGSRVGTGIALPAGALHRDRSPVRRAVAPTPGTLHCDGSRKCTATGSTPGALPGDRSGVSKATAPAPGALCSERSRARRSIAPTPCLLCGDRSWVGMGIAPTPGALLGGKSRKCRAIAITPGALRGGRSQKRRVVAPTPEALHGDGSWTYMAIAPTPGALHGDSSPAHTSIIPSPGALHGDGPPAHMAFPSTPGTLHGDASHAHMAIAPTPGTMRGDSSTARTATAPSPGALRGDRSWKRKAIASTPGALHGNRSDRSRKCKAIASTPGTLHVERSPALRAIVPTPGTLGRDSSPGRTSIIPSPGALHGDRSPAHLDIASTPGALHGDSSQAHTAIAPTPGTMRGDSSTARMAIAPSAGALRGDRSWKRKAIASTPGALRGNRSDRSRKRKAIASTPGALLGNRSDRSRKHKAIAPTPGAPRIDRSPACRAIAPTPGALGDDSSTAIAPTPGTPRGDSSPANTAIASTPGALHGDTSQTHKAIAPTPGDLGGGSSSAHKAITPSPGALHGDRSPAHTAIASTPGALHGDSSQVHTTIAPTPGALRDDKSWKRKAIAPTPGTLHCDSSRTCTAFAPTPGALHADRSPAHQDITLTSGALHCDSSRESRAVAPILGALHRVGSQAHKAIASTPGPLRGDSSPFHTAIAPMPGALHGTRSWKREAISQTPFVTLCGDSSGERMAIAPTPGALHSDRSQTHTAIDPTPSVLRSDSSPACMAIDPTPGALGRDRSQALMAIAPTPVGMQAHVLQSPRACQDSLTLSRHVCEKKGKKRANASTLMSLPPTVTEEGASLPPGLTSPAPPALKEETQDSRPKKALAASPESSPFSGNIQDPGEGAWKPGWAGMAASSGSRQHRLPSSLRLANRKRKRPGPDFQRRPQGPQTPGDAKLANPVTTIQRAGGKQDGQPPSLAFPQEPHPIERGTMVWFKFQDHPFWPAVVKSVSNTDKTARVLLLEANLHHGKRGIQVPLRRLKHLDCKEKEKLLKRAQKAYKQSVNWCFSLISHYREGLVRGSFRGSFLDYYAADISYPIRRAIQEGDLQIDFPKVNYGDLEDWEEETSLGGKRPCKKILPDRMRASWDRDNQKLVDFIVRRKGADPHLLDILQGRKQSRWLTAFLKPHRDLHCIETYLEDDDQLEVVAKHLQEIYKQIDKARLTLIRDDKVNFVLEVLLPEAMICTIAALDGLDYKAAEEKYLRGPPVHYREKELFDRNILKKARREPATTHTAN
# UniProt Q13075: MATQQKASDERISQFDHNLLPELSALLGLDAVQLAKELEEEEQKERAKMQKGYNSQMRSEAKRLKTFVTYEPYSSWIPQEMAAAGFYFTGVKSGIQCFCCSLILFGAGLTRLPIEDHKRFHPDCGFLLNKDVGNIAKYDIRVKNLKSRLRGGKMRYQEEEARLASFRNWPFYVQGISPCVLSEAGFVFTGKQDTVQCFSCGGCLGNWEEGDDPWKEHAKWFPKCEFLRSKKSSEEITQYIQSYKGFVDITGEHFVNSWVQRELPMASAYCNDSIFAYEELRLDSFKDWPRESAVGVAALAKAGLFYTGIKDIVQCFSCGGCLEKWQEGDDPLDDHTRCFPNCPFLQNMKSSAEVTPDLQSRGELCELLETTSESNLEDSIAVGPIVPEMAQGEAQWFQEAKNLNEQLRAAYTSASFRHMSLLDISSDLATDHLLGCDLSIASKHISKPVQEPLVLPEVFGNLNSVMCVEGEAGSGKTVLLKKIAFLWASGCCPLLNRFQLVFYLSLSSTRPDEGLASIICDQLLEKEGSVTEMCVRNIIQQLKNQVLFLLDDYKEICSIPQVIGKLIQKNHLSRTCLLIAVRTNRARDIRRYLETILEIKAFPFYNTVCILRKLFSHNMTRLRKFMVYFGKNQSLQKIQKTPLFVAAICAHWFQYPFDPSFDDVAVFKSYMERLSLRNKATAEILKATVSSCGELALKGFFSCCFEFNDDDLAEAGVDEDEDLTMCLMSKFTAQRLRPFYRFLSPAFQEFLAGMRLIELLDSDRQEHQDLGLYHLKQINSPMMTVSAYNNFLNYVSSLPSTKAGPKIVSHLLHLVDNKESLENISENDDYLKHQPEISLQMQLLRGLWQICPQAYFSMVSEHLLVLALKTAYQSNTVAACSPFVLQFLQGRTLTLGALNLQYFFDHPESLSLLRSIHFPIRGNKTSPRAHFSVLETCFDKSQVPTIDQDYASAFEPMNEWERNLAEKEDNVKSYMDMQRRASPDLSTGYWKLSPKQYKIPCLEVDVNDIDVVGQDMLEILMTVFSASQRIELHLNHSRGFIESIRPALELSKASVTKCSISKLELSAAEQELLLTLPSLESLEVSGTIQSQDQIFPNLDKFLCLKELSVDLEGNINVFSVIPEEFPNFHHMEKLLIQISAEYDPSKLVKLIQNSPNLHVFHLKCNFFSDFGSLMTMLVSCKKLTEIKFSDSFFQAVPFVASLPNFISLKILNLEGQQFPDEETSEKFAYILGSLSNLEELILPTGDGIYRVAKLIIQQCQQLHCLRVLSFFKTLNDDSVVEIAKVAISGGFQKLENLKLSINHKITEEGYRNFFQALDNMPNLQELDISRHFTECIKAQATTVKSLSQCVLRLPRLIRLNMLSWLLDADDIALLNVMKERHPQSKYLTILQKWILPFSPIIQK
# UniProt O14777: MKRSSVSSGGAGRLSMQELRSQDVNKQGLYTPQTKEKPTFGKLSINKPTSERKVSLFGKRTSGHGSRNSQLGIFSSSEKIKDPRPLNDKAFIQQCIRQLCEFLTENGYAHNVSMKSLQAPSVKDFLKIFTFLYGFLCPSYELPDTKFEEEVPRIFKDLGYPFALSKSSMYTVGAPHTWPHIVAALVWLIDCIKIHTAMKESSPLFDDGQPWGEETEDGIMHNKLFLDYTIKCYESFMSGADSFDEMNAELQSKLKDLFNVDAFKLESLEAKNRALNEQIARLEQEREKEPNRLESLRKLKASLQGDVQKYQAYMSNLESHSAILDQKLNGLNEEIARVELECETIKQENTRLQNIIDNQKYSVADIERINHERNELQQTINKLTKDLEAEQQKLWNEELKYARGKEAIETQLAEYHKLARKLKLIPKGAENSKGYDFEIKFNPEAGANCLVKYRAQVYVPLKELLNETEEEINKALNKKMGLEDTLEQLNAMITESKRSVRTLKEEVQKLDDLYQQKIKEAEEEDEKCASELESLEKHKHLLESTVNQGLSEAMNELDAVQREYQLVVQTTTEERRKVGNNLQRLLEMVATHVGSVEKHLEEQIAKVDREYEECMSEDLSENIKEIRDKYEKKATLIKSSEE
# UniProt Q9Y6Q9, whole entry, looked up: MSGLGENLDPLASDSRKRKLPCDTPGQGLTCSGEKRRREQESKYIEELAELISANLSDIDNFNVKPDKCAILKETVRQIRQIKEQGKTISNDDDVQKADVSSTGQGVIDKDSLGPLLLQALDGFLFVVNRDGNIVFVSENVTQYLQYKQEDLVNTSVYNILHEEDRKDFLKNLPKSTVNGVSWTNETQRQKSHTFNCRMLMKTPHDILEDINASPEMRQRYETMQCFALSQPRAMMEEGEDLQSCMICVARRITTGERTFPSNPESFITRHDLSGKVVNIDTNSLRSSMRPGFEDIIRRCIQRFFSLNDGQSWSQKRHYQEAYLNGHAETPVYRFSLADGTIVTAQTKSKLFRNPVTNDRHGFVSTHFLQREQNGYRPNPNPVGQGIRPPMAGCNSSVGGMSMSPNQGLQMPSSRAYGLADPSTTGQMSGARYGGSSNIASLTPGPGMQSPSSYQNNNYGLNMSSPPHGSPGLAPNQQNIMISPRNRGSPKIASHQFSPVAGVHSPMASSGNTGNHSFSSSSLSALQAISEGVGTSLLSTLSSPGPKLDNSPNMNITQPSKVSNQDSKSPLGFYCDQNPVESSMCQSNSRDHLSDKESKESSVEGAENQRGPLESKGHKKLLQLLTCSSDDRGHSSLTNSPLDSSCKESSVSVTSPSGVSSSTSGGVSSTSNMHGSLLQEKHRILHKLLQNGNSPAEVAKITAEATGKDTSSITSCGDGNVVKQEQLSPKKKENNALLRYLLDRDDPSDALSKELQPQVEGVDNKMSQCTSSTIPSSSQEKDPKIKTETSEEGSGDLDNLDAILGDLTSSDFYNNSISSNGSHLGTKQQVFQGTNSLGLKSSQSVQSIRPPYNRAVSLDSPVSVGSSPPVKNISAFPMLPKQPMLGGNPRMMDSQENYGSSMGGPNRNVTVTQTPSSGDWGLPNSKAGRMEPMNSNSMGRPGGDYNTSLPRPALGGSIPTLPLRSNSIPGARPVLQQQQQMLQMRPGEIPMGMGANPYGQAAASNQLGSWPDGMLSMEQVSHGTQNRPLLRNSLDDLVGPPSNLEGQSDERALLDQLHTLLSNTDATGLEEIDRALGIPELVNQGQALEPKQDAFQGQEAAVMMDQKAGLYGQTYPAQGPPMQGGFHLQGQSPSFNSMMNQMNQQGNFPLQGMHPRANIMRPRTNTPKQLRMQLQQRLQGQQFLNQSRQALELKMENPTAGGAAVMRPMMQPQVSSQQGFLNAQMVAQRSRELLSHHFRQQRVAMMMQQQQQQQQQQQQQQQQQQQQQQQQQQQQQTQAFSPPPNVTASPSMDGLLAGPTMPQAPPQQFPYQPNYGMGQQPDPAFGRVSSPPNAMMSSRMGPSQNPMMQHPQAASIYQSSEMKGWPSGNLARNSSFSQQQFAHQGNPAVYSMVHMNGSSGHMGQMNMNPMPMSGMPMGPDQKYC
# Key:
# Assay in all cases: log2 fold change, soluble protein after heating vs DMSO (PISA); higher = thermal stabilisation; K562 cells, 10 uM, 30 min; active = over 0.2 and 3.5 SD of the protein, either way, in both replicates (recomputed)
# [1] = compound: C#Cc1cccc(Nc2ncnc3cc(OCCOC)c(OCCOC)cc23)c1 [erlotinib]
# Method in brief: (§1)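 Soluble protein was defined as the supernatant after 21,000xg for 90 min. It came from K562 cells at 2×10^6 cells/mL given 10 μM compound for 30 min, heated in aliquots for 3 min across 48°C-58°C, pooled, and extracted in PBS with 0.5% NP-40 at 4°C, and was quantified by TMTpro 16plex LC-MS/MS with equalised channel sums. Thermal stability against control samples, from duplicates, is reported as log2 fold change.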
# [2] = compound: C1=CC(=C(C=C1Cl)C2=NC3=NC=CN=C3C(=N2)NC4=CC=NC=C4)F
# Method in brief: as §1
# [3] = compound: C1=CC(=CC=C1C2=NC3=C(N2)C=C(C=C3)C(=O)N)OC4=CC=C(C=C4)Cl
# Method in brief: as §1
# [4] = compound: C1=CC2=NC=CN=C2C=C1/C=C/3\C(=O)NC(=O)S3
# Method in brief: as §1
# [5] = compound: C1=CC=C(C=C1)C2=NC(=C(N2)C3=CC=NC=C3)C4=CC(=C(C=C4)Cl)O
# Method in brief: as §1
# [6] = compound: C1CCN(C1)C(=O)NC2=CC=CC(=C2)NC3=NC=C(C(=N3)NCCC4=CN=CN4)Br
# Method in brief: as §1
# [7] = compound: C1CN(CCC1(CC2=CC=C(C=C2)Cl)N)C3=NC=NC4=C3C=CN4
# Method in brief: as §1
# [8] = compound: C1COCCN1CCN2C3=CC=CC=C3N=C2NC(=O)C4=CC(=CC=C4)[N+](=O)[O-] [IRAK-1-4 Inhibitor I]
# Method in brief: as §1
# [9] = compound: C=CC(=O)N1CCC[C@@H](n2nc(-c3ccc(Oc4ccccc4)cc3)c3c(N)ncnc32)C1 [ibrutinib]
# Method in brief: as §1
# [10] = compound: CC(C)(C)Cn1c(N)nc2ccc(-c3[nH]c(C(C)(C)C)nc3-c3ccc(F)cc3)nc21 [ralimetinib]
# Method in brief: as §1
# [11] = compound: CC(C)(O)CC(=O)NCCn1ccc2ncnc(Nc3ccc(Oc4cccc(C(F)(F)F)c4)c(Cl)c3)c21
# Method in brief: as §1
# [12] = compound: CC(C)C1=C2N=C(C=C(N2N=C1)NCC3=CC=CC=C3)NCCCCCCN
# Method in brief: as §1
# [13] = compound: CC(C)C[C@@H](C=O)NC(=O)[C@H](CC(C)C)NC(=O)[C@H](CC(C)C)NC(=O)OCc1ccccc1
# Method in brief: as §1
# [14] = compound: CC(C)N(C[C@H]1O[C@@H](n2cnc3c(N)ncnc32)[C@H](O)[C@@H]1O)[C@H]1C[C@@H](CCc2nc3cc(C(C)(C)C)ccc3[nH]2)C1 [pinometostat]
# Method in brief: as §1
# [15] = compound: CC1=C(C(CC(=O)N1)C2=CC=C(C=C2)C(F)(F)F)C(=O)NC3=C(C=C4C(=C3)C=NN4)F
# Method in brief: as §1
# [16] = compound: CC1=C(C2=C(C=C1)C(=O)C3=CC=CC=C3N2CCCN)C
# Method in brief: as §1
# [17] = compound: C/C(=N\NC(=O)C1=CC(=CC=C1)S(=O)(=O)N2CCOCC2)/C3=C(C=CC(=C3)Cl)O
# Method in brief: as §1
# [18] = compound: C1=CC2=C(C=CC(=C2)/C=C\3/C(=O)NC(=NCC4=CC=CS4)S3)N=C1
# Method in brief: as §1
# [19] = compound: C1=CC=C2C(=C1)C3=NNC4=CC=CC(=C43)C2=O
# Method in brief: as §1
# [20] = compound: CC(=O)c1cnc2ccc(-c3cc(Cl)c(O)c(Cl)c3)nc2c1N[C@H]1CC[C@H](CN(C)C)CC1
# Method in brief: as §1
Target,log2 fold change [1],log2 fold change [2],log2 fold change [3],log2 fold change [4],log2 fold change [5],log2 fold change [6],log2 fold change [7],log2 fold change [8],log2 fold change [9],log2 fold change [10],log2 fold change [11],log2 fold change [12],log2 fold change [13],log2 fold change [14],log2 fold change [15],log2 fold change [16],log2 fold change [17],log2 fold change [18],log2 fold change [19],log2 fold change [20]
NAMPT (UniProt C9JF35),inactive: 0.205,inactive: 0.084,inactive: -0.004,inactive: 0.122,inactive: 0.088,inactive: 0.104,inactive: -0.051,inactive: -0.099,inactive: -0.058,inactive: -0.054,inactive: -0.046,inactive: -0.07,inactive: -0.125,inactive: -0.148,inactive: 0.075,inactive: -0.023,–,–,–,–
NEK1 isoform 3 (UniProt Q96PY6),inactive: 0.153,–,inactive: -0.022,–,inactive: -0.065,–,–,inactive: -0.048,–,inactive: 0.029,–,inactive: -0.141,inactive: 0,inactive: 0.169,–,–,inactive: 0.175,inactive: -0.041,inactive: 0.047,inactive: -0.295
NCK2 (UniProt O43639),–,inactive: 0.085,–,inactive: -0.055,inactive: -0.08,inactive: -0.305,inactive: 0.134,inactive: -0.123,inactive: 0.213,inactive: -0.226,inactive: -0.092,–,inactive: 0.275,inactive: 0.088,inactive: 0.013,inactive: 0.272,inactive: 0.026,inactive: 0.117,inactive: -0.054,inactive: -0.188
"NA, A0A2R8Y3M9",–,–,–,inactive: 0.132,inactive: -0.072,–,–,inactive: 0.087,inactive: 0.215,inactive: -0.08,–,–,inactive: 0.056,inactive: -0.001,–,–,inactive: -0.335,inactive: 0.355,inactive: -0.137,inactive: -0.207
NCOA5 (UniProt Q9HCD5),inactive: -0.057,–,inactive: 0.156,–,inactive: -0.094,–,–,inactive: -0.136,–,inactive: -0.012,–,inactive: -0.194,inactive: 0.055,inactive: 0.048,–,–,–,–,–,–
NBEAL2 (UniProt Q6ZNJ1),inactive: -0.011,–,inactive: 0.04,–,inactive: -0.06,–,–,inactive: 0,–,inactive: 0.168,–,inactive: -0.153,inactive: 0.272,inactive: -0.055,–,–,–,–,–,–
NAAA (UniProt Q02083),inactive: 0.084,–,inactive: -0.044,–,inactive: -0.096,–,–,inactive: 0.049,–,inactive: 0.014,–,inactive: 0.043,inactive: 0.04,inactive: -0.105,inactive: 0.09,–,–,–,–,–
NA isoform 3 (UniProt Q4G0T1),inactive: 0.019,–,inactive: 0.01,inactive: -0.035,inactive: 0.014,inactive: 0.058,inactive: 0.071,inactive: 0.007,inactive: -0.1,inactive: -0.118,–,inactive: -0.022,inactive: 0.155,inactive: -0.043,–,inactive: -0.109,inactive: 0,inactive: 0.11,inactive: 0.047,inactive: -0.146
"NA, A0A1W2PSA9",–,–,–,–,inactive: -0.008,inactive: 0.101,inactive: -0.086,–,–,inactive: 0.004,–,–,inactive: 0.122,–,–,inactive: -0.27,inactive: -0.065,inactive: -0.111,inactive: -0.104,inactive: -0.13
NDUFA7 (UniProt M0R0N0),inactive: 0.101,–,inactive: -0.051,inactive: 0.015,–,–,–,–,inactive: -0.109,–,–,inactive: -0.136,–,–,–,–,–,–,–,–
NCKAP5L (UniProt Q9HCH0),–,–,–,–,inactive: -0.077,–,–,inactive: -0.106,–,inactive: 0.217,–,–,inactive: 0.129,inactive: 0.077,–,–,–,–,–,–
NDFIP2 (UniProt Q9NV92),inactive: -0.307,–,inactive: 0.009,–,inactive: -0.19,inactive: -0.095,inactive: 0.086,–,–,inactive: 0.147,–,inactive: -0.069,inactive: -0.229,–,–,inactive: 0.119,–,–,–,–
NATD1 (UniProt Q8N6N6),–,–,–,–,–,–,–,–,–,–,–,–,–,–,inactive: 0.047,–,inactive: 0.071,inactive: -0.021,inactive: 0.052,inactive: -0.02
NCBP2AS2 (UniProt Q69YL0),inactive: 0.033,–,inactive: 0.054,inactive: 0.106,inactive: -0.029,inactive: 0.048,inactive: 0.113,–,inactive: 0.07,inactive: -0.01,–,active: -0.869,inactive: 0.026,–,–,inactive: -0.008,inactive: 0.104,inactive: 0,inactive: 0.148,inactive: 0.21
"NA, A0A494C071",–,inactive: 0.197,–,inactive: 0.079,–,inactive: 0.136,inactive: 0.114,inactive: -0.011,inactive: -0.1,–,inactive: 0.03,–,–,inactive: -0.034,–,inactive: -0.141,inactive: 0,inactive: -0.005,inactive: -0.018,inactive: -0.038
NCKIPSD (UniProt Q9NZQ3),inactive: 0.043,–,inactive: 0.439,–,inactive: 0.023,–,–,–,–,inactive: 0.098,–,inactive: -0.169,inactive: 0.113,–,–,–,inactive: 0.118,inactive: 0.199,inactive: -0.111,inactive: 0.065
NAIP (UniProt Q13075),inactive: 0.246,–,inactive: -0.039,–,inactive: -0.449,–,–,inactive: 0.042,–,inactive: -0.451,–,inactive: 0.001,inactive: 0.236,inactive: 0.053,–,–,–,–,–,–
NDUFC1 (UniProt O43677),inactive: -0.037,inactive: 0.166,inactive: 0.15,–,–,–,–,–,–,–,inactive: -0.044,inactive: 0.038,–,–,–,–,inactive: -0.009,inactive: -0.072,inactive: 0.115,inactive: 0.024
MYSM1 (UniProt Q5VVJ2),–,–,–,inactive: 0.173,inactive: 0.37,–,–,inactive: -0.264,inactive: 0.291,inactive: -0.022,–,–,inactive: -0.061,inactive: 0.153,–,–,–,–,–,–
NAV1 (UniProt Q8NEY1),inactive: 0.153,inactive: -0.096,inactive: 0.029,–,inactive: -0.103,inactive: -0.072,inactive: 0.304,inactive: -0.097,–,inactive: 0.154,inactive: -0.087,inactive: -0.337,inactive: 0.141,inactive: 0.202,inactive: -0.126,inactive: -0.112,inactive: 0.052,inactive: 0.051,inactive: -0.053,inactive: -0.569
NAP1L4 (UniProt C9J6D1),–,–,–,–,–,–,–,inactive: 0.025,–,–,–,–,–,inactive: -0.038,–,–,inactive: 0.132,inactive: -0.237,inactive: -0.174,inactive: -0.572
NCAPH2 isoform 4 (UniProt Q6IBW4),inactive: -0.055,inactive: -0.061,inactive: -0.159,–,–,–,–,inactive: -0.26,–,–,inactive: -0.026,inactive: -0.22,–,inactive: 0.218,inactive: -0.218,–,inactive: 0.057,inactive: -0.109,inactive: 0.011,inactive: -0.161
NDC80 (UniProt O14777),inactive: 0.075,inactive: -0.234,inactive: -0.012,–,inactive: -0.01,inactive: 0.023,inactive: -0.078,inactive: -0.247,–,inactive: 0.209,inactive: 0.052,inactive: -0.212,inactive: 0.215,inactive: 0.35,inactive: -0.096,inactive: 0.048,inactive: -0.017,inactive: 0.062,inactive: -0.06,inactive: 0.049
NCOA4 isoform 4 (UniProt Q13772),–,–,–,–,inactive: -0.076,–,–,–,–,inactive: 0.463,–,–,inactive: 0.692,–,–,–,–,–,–,–
NAP1L1 (UniProt B7Z9C2),inactive: 1.01,–,inactive: -0.051,inactive: 0.175,–,–,–,inactive: -0.147,inactive: -0.04,–,–,inactive: 0.359,–,inactive: -0.052,–,–,inactive: 0.122,inactive: 0.156,inactive: -0.178,inactive: -0.058
NCOA3 (UniProt Q9Y6Q9),inactive: 0.168,inactive: -0.251,inactive: -0.095,inactive: -0.166,inactive: -0.045,inactive: -0.144,inactive: 0.076,inactive: -0.029,inactive: -0.048,inactive: -0.049,inactive: 0.055,inactive: -0.202,inactive: 0.045,inactive: -0.145,inactive: 0.035,inactive: 0.132,–,–,–,–
NDRG2 (UniProt G3V2A6),inactive: 0.009,–,inactive: -0.026,–,–,–,–,–,–,–,–,inactive: 0.19,–,–,–,–,–,–,–,–
NAA40 (UniProt Q86UY6),–,inactive: -0.47,–,–,inactive: -0.177,inactive: -0.097,inactive: -0.08,inactive: -0.154,–,inactive: 0.041,inactive: 0.221,–,inactive: 0.01,inactive: 0.194,–,inactive: -0.338,–,–,–,–
NA (UniProt J3KR12),–,inactive: -0.073,–,inactive: 0.254,inactive: 0.075,–,–,inactive: -0.191,inactive: -0.159,inactive: 0.011,inactive: -0.1,–,inactive: 0.017,inactive: 0.053,–,–,–,–,–,–

# Full records as entered above. Order of values: log2 fold change [1]	log2 fold change [2]	log2 fold change [3]	log2 fold change [4]	log2 fold change [5]	log2 fold change [6]	log2 fold change [7]	log2 fold change [8]	log2 fold change [9]	log2 fold change [10]	log2 fold change [11]	log2 fold change [12]	log2 fold change [13]	log2 fold change [14]	log2 fold change [15]	log2 fold change [16]	log2 fold change [17]	log2 fold change [18]	log2 fold change [19]	log2 fold change [20]
# NAMPT (UniProt C9JF35) in the list: inactive: 0.205	inactive: 0.084	inactive: -0.004	inactive: 0.122	inactive: 0.088	inactive: 0.104	inactive: -0.051	inactive: -0.099	inactive: -0.058	inactive: -0.054	inactive: -0.046	inactive: -0.07	inactive: -0.125	inactive: -0.148	inactive: 0.075	inactive: -0.023	–	–	–	–
# NDUFC1 (UniProt O43677) in the list: inactive: -0.037	inactive: 0.166	inactive: 0.15	–	–	–	–	–	–	–	inactive: -0.044	inactive: 0.038	–	–	–	–	inactive: -0.009	inactive: -0.072	inactive: 0.115	inactive: 0.024
